Assay results reported in US20090029984A1 (priority 2005, published 2009).
Where “and” joins values, the source holds several entries; their conditions need not be identical. Equal entries are not always repeated. Where two headings read alike, the source gives them in different places.

Assays:
[1] = system: mice; settings: mouse, in vivo, iv
[2] = in vivo; settings: male, ICR, mouse, brain and plasma, iv, 3 umol/kg
[3] = system: mice
[4] = mice, 3 μmol/kg intravenous dose
[5] = 5% mulgofen s.c. (−20 min), then morphine 1.51 μmol/kg + Compound 1a 1.0 μmol/kg i.v.
[6] = SR141716A 3.0 μmol/kg s.c. (−20 min), then morphine 1.51 μmol/kg + Compound 1a 1.0 μmol/kg i.v.
[7] = 5% mulgofen s.c. (−20 min), then morphine 1.51 μmol/kg + 10% tween 80 i.v.

Structure (SMILES) | Tmax post-injection [1] | Kp [2] | % of MPE at Tmax [3, 5] [%] | Tail flick latency (s) + s.e.m. at Tmax [3, 5] [s] | % of MPE at Tmax [3, 6] [%] | Tail flick latency (s) + s.e.m. at Tmax [3, 6] [s] | maximum measured concentration in brain homogenate [4] [ng/g] | maximum measured concentration in plasma [4] [ng/mL] | Tail flick latency (s) + s.e.m. at Tmax [1] | % of MPE at Tmax [3, 7] [%] | Tail flick latency (s) + s.e.m. at Tmax [3, 7] [s] | Tail flick latency (s) + s.e.m. at Tmax ([3]; 5% mulgofen s.c. (−20 min), then morphine 1.51 μmol/kg + 10% tween 80 i.v., listed as Morphine) [s]
CCOC(=O)c1c(C)cc2nc(COC(=O)NCCO)n(-c3ccccc3S(=O)(=O)NC)c(=O)c2c1C [Compound 1a, 2-(2-Hydroxy-ethylcarbamoyloxymethyl)-5,7-dimethyl-3-(2-methylsulfamoylphenyl)-4-oxo-3,4-dihydro-quinazoline-6-carboxylic acid ethyl ester] | 40 min and 20 min | 0.02 | 92.1 | 11.33 ± 0.36 | 38.0 | 6.75 ± 0.77 | 43 | 2515 | – | – | – | –
Cl.O=C(NCCO)[C@H]1CCCN(Cc2nc(-c3cn(CC4CCS(=O)(=O)CC4)c4c(Cl)cccc34)ns2)C1 [Compound 2, (S)-7-Chloro-3-[(5-{[3-N-(2-hydroxyethyl)carboxamido]piperidin-1-yl}methyl)([1,2,4]-thiadiazol-3-yl)]-1-(1,1-dioxo-hexahydrothiopyran-4-yl)methyl-1H-indole, hydrochloride salt] | 40 min | 0.03 | – | – | – | – | 18 | 528 | – | – | – | –
CN1CC[C@]23c4c5ccc(O)c4O[C@H]2[C@@H](O)C=C[C@H]3[C@H]1C5 [morphine, reference compound] | – | – | – | – | – | – | – | – | 7.75 ± 0.81 s and 7.09 ± 0.17 s | 38.3 | 6.78 ± 0.27 | 6.78 ± 0.27
